Assay results reported in PubChem BioAssay AID493014 (National Center for Advancing Translational Sciences (NCATS), 2011).
Out of some 340,000 compounds screened, about 170 (0.05%) were called active. Inconclusive means that the source gave no clear call. Such entries were picked first, then a sample of the others. The call rests on the fitted dose curve; in most records, active means well fitted inhibition curve with a large enough effect in the signal ratio, with a control signal flat (not every such curve was filed as active); inconclusive means small, poorly fitted or top-dose-only effect, or effect the other way, or a change in a side signal; inactive means flat fitted curve, though single readings scatter; the % refers to the signal ratio. Where the call is inconclusive, the potency comes from a doubtful curve fit.

Assay: qHTS Assay to Find Inhibitors of Chronic Active B-Cell Receptor Signaling;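 on activity change, negative = inhibition: plate controls were basal doxycycline-induced cells for no effect and cells given 10 µM MG132 for full effect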
Settings: ABC-DLBCL IkBa-CBG/CBR reporter, luminescence ratio (green luciferase fused to IkBa over red control in TMD8 lymphoma cells), 4 h; activity change, negative = inhibition: at 46.1 µM (top of the series)
How it was run: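 Concentration-response series (up to 46 uM) were applied to TMD8 dual-reporter cells for 4 h at 37C with doxycycline. Green/red ratio, after filter-overlap correction, defined %Activity; red signal alone was normalised to basal cells and zero luminescence.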
Potency means the concentration at half of the fitted maximal effect.

SMILES	Potency	activity change, negative = inhibition
O=C(COc1ccccc1)Nc1ccc(S(=O)(=O)N2CCCCCC2)cc1	inconclusive: 10.3 µM [falling, partial curve, poor fit]	
O=C(COC(=O)[C@@H]1CCCN1S(=O)(=O)c1ccccc1F)Nc1ccc(OC(F)F)cc1		inconclusive: 6.91%
COc1ccc(-c2csc3ncn(-c4ccc(C)cc4)c(=O)c23)cc1OC		inconclusive: -3.13%
O=C(Nc1ccc(C(F)(F)F)cc1)c1cc(S(=O)(=O)NC2CCCCC2)ccc1F		inconclusive: 3.23%
COc1ccccc1C1C2=C(COC2=O)Nc2cc3c(cc21)OCO3 (configuration not stated)	inconclusive: 0.282 µM [falling, full curve, poor fit]	
CCc1ccc(/C=C/C(=O)C2C(=O)c3ccccc3C2=O)cc1		inconclusive: -6.07%
CCOc1ccc(CCNc2cc(C)nc3ncnn23)cc1OCC		inactive: -0.28%
Cc1ccc2[nH]cc(S(=O)(=O)c3ccc(F)cc3)c(=O)c2c1		inconclusive: 8.33%
CN(C)c1ccc(S(=O)(=O)NCC(=O)NCCOc2ccccc2F)cc1[N+](=O)[O-]		inconclusive: -0.678%
CNC(=O)/C(C#N)=C1\SC(Cc2ccc(F)cc2)C(=O)N1c1ccccc1C (configuration not stated)	inconclusive: 8.91 µM [rising, partial curve, poor fit]	
CCCc1cc(C(=O)NCc2ccccc2)no1	inconclusive: 29.1 µM [falling, single point]	
COc1ccc(-c2cnnn2-c2ccc([N+](=O)[O-])cc2)cc1		inconclusive: 20.7%
COc1ccc(Br)cc1/C=C/C(=O)Nc1ccc(C)cc1		inconclusive: 9%
Cc1ccsc1/C=N/NC(=O)Cc1cc(=O)[nH][nH]1	inconclusive: 11.2 µM [falling, partial curve, poor fit]	
C=CCNC(=O)C1CC2Cn3c(nc4cc5ccccc5cc43)C2N1C (configuration not stated)		inconclusive: 8.15%
CN1CCN(C(=O)c2ccc3c(c2)N(Cc2cccc(Cl)c2)C(=O)c2ccccc2S3(=O)=O)CC1		inconclusive: -0.953%
Cc1cc(C)c(-c2cc(C(F)(F)F)no2)c(=O)[nH]1		inactive: 5.15%
Cn1nccc1C(=O)Nc1ccc(OC(=O)c2ccnn2C)cc1	inconclusive: 11.6 µM [rising, partial curve, poor fit]	
CN(C)CCCN(C(=O)c1ccco1)c1nc2c(F)cccc2s1		inactive: 11%
Cc1ccc(NC(=O)c2cnccn2)cc1	inconclusive: 15.8 µM [falling, partial curve]	
Cc1ccn(CC(=O)N2CCCC(N3CCN(c4cccc(Cl)c4)CC3)C2)n1 (configuration not stated)		inactive: -2.97%
CC(=Nc1ccc(C)cc1)c1sc2ccccc2c1O	inconclusive: 6.51 µM [rising, partial curve, poor fit]	
CCN(CC)c1ccc(/C=C2\CCC(/C=C(\C#N)C(=O)Nc3ccccc3F)=C2N2CCOCC2)cc1		inconclusive: 5.86%
C=CCNC(=S)N/N=C(\C)c1cc(OC)c(OC)c(OC)c1	inconclusive: 29.1 µM [cytotoxic, single point]	
COc1ccc(C(=O)Oc2ccc3c(c2)OCO3)cc1OC		inconclusive: 2.1%
O=C1C=C(c2ccccc2C(F)(F)F)C[C@@H](c2ccc3c(c2)OCO3)C1		inactive: 3.21%

SMILES	Potency	activity change, negative = inhibition
COc1cc(C(=O)NCCCN(C)C)ccc1OCC(=O)Nc1cccc(C(F)(F)F)c1		inactive: -0.0395%
CCOC(=O)C1CCN(C(=O)/C=C/c2ccc(S(=O)(=O)N3CCOCC3)cc2)CC1		inactive: 0.421%
Clc1ccc(Cn2ncc3c(N4CCCC4)ncnc32)cc1		inconclusive: -21.7%
COc1ccc(-c2cc(=O)oc3c(C)c(OC(C)C(C)=O)ccc23)cc1 (configuration not stated)		inactive: -10.1%
Cc1ccc(C)c(C(=O)Cn2ncc(Cl)c(Cl)c2=O)c1	inconclusive: 18.4 µM [rising, partial curve, poor fit]	
CC(Cc1ccccc1)NC(=O)/C=C/c1ccc([N+](=O)[O-])cc1 (configuration not stated)		inconclusive: 2.37%
O=C(COC(=O)c1ccc(O)cc1)NCCCc1ccccc1		inactive: -4.08%
CC(C)(C)C(=O)NC(=S)NNC(=O)c1sc2ccccc2c1Cl	inconclusive: 3.26 µM [falling, partial curve, poor fit]	
O=S(=O)(Nc1nccs1)c1ccc(NCc2cc(Br)cc(Br)c2O)cc1	inconclusive: 0.0891 µM [falling, full curve, poor fit]	
Cc1ccc(C)c(OCCCN2CCCC2)c1		inconclusive: 2.55%
CN1C(=O)/C(=C/c2ccc(OCc3cccc(F)c3)cc2)NC1=S		inconclusive: 3.68%
COc1cc(O)sc1C=Nc1ccc(Cl)cc1	inconclusive: 22.4 µM [falling, single point]	
Cc1cc(C)cc(N2CC(O)=C(c3nc4ccccc4c(=O)[nH]3)C2=N)c1	inconclusive: 10 µM [falling, partial curve]	
Cc1nn(-c2ccccc2)c2nc(C(F)F)cc(C(F)F)c12		inconclusive: -1.36%
CC(=O)Cn1nnc2sc3c(c2c1=O)CCC(C(C)(C)C)C3 (configuration not stated)		inconclusive: 20%
COc1ccc(C(=O)NNC(=O)c2ccncc2)cc1	inconclusive: 23.1 µM [falling, partial curve, poor fit]	
Cc1cccc2cc3c(N)c(C(=O)Nc4ccc(N5CCOCC5)cc4)sc3nc12		inactive: 9.87%
Cc1cccc(OCCCn2c(=O)oc3ccccc32)c1		inconclusive: 6.07%
CCOC(=O)c1c(C)[nH]c(C(=O)OCC(=O)c2ccc(OC)cc2OC)c1C		inconclusive: 4.32%
Cc1ccc(OCC(=O)Nc2cccc(S(=O)(=O)NC3=NCCCCC3)c2)cc1C		inconclusive: 0.0913%
CCn1cc(CN2CCN(Cc3ccsc3)C(CCO)C2)cn1 (configuration not stated)	inconclusive: 20 µM [falling, single point]	
CC(C)(C)c1ccc(C(=O)NCCOc2ccccc2)cc1		inconclusive: 1.55%
CCOc1ccc(NC(=S)N(CCc2c(C)[nH]c3ccc(C)cc23)Cc2ccncc2)cc1		inactive: -5.05%
Cc1c(CC(=O)N2CCN(C(=O)C3COc4ccccc4O3)CC2)c(=O)oc2cc(O)c(Cl)cc12 (configuration not stated)		inactive: -4.93%
CCN(CC)C(=S)SCC(=O)Nc1nc(-c2ccccc2)c(-c2ccccc2)o1		inconclusive: 13.5%
COc1cc(OC)cc(C2=NC3(CCC(C)CC3)NC2=S)c1 (configuration not stated)		inconclusive: 25.6%

SMILES	Potency	activity change, negative = inhibition
COc1ccc2c(CC(=O)OCC(=O)Nc3ccc(C)cc3)coc2c1		inconclusive: 0.1%
CCC(=O)Nc1ccc(-c2nnc(SCc3ccc(C(=O)Nc4nccs4)cc3)n2CC)cc1		inconclusive: 10.1%
CCc1c(C)c2c(C)nn(-c3ccccc3)c2[nH]c1=O		inactive: -5.39%
Cc1ccc(NC2CC(=O)N(c3ccc(N4CCCCC4)cc3)C2=O)cc1 (configuration not stated)		inconclusive: 2.08%
Cc1oc2cc3c(C(=O)N4CCCCC4)c(C)oc3cc2c1C(=O)N1CCCCC1	inconclusive: 7.94 µM [falling, partial curve, poor fit]	
COc1ccc(NC(=O)c2nc[nH]c2C(=O)N[C@@H](CC(C)C)C(=O)OC(C)(C)C)cc1		inconclusive: -1.31%
O=C(NN=C1CCN(Cc2ccccc2)CC1)c1ccccc1	inconclusive: 18.4 µM [falling, partial curve]	
CCOC(=O)Cc1csc(N/C(=N/S(=O)(=O)c2cc(Br)ccc2OCC)c2ccccc2)n1		inactive: -5.84%
CC(C)(C)c1cc(=O)n2c(nc3ccccc32)[nH]1		inconclusive: -2.75%
O=C(Nc1ccccc1)C1=C[C@H](c2ccccc2)C[C@H](OCc2ccc(CO)cc2)O1		inconclusive: -28.8%
COc1ccc(Cn2ccnc2)cc1[N+](=O)[O-]		inconclusive: 4.19%
COc1ccc(CCNC(=O)CSc2nnc(-c3ccc(F)cc3)o2)cc1OC		inconclusive: 0.322%
COc1ccc(C(=O)O/N=C(\N)c2ccccc2)cc1OC	inconclusive: 3.98 µM [falling, partial curve]	
COc1cccc(/C=C/C(=O)OCC(=O)Nc2cccc(S(=O)(=O)NC3=NCCCCC3)c2)c1		inactive: 1.3%
O=C(NCCCN1CCOCC1)c1ccc2c(c1)N(Cc1ccc(Cl)cc1)C(=O)c1ccccc1S2=O (configuration not stated)		inconclusive: 2.11%
S=C(NCCc1ccccc1)N/N=C/c1c(Cl)cccc1Cl	inconclusive: 29.1 µM [rising, single point]	
N#CCCn1cc(C=C(C#N)C#N)c(-c2ccc(Cl)cc2)n1	inconclusive: 31.6 µM [falling, single point]	
CCN(CC1COc2ccccc2O1)C(=O)c1ccc(Cl)c(S(=O)(=O)N2CC(C)OC(C)C2)c1 (configuration not stated)		inconclusive: 1.39%
COc1cccc(Sc2ccccc2/C=N/NC(N)=O)c1		inactive: -0.514%
CC(C)(C)C(=O)Nc1nnc(-c2ccccc2)c(-c2ccccc2)n1	inconclusive: 35.5 µM [rising, partial curve, poor fit]	
Cc1ccc(NNC(=O)c2cccs2)cc1Cl	inconclusive: 14.1 µM [falling, partial curve, poor fit]	
O=C(OCN1C(=O)c2ccccc2C1=O)c1cccc(S(=O)(=O)N2CCOCC2)c1		inconclusive: -6.37%
COCCN1C(=O)c2ccccc2C(C(=O)Nc2ccc3c(c2)OCCO3)C1c1ccc(F)cc1 (configuration not stated)		inconclusive: -10.6%
COc1ccc2c(c1)[C@H]1[C@H](CO2)[C@H](c2ccccc2)[C@]2(C)C(=O)Nc3ccc(F)cc3C(=O)N12		inconclusive: 1.66%
CCOC(=O)C1=NN(c2ccccc2)C(=O)/C1=C\c1ccc(N(C)C)cc1		inconclusive: -4.2%

As a short view, part of the list above:
SMILES	Potency	activity change, negative = inhibition
CCc1c(C)c2c(C)nn(-c3ccccc3)c2[nH]c1=O		inactive: -5.39%
Cc1ccc(NC2CC(=O)N(c3ccc(N4CCCCC4)cc3)C2=O)cc1 (configuration not stated)		inconclusive: 2.08%
Cc1oc2cc3c(C(=O)N4CCCCC4)c(C)oc3cc2c1C(=O)N1CCCCC1	inconclusive: 7.94 µM [falling, partial curve, poor fit]	
COc1ccc(NC(=O)c2nc[nH]c2C(=O)N[C@@H](CC(C)C)C(=O)OC(C)(C)C)cc1		inconclusive: -1.31%
O=C(NN=C1CCN(Cc2ccccc2)CC1)c1ccccc1	inconclusive: 18.4 µM [falling, partial curve]	
CCOC(=O)Cc1csc(N/C(=N/S(=O)(=O)c2cc(Br)ccc2OCC)c2ccccc2)n1		inactive: -5.84%
CC(C)(C)c1cc(=O)n2c(nc3ccccc32)[nH]1		inconclusive: -2.75%
O=C(Nc1ccccc1)C1=C[C@H](c2ccccc2)C[C@H](OCc2ccc(CO)cc2)O1		inconclusive: -28.8%
COc1ccc(Cn2ccnc2)cc1[N+](=O)[O-]		inconclusive: 4.19%
COc1ccc(CCNC(=O)CSc2nnc(-c3ccc(F)cc3)o2)cc1OC		inconclusive: 0.322%
COc1ccc(C(=O)O/N=C(\N)c2ccccc2)cc1OC	inconclusive: 3.98 µM [falling, partial curve]	
COc1cccc(/C=C/C(=O)OCC(=O)Nc2cccc(S(=O)(=O)NC3=NCCCCC3)c2)c1		inactive: 1.3%
O=C(NCCCN1CCOCC1)c1ccc2c(c1)N(Cc1ccc(Cl)cc1)C(=O)c1ccccc1S2=O (configuration not stated)		inconclusive: 2.11%
S=C(NCCc1ccccc1)N/N=C/c1c(Cl)cccc1Cl	inconclusive: 29.1 µM [rising, single point]	
N#CCCn1cc(C=C(C#N)C#N)c(-c2ccc(Cl)cc2)n1	inconclusive: 31.6 µM [falling, single point]	
CCN(CC1COc2ccccc2O1)C(=O)c1ccc(Cl)c(S(=O)(=O)N2CC(C)OC(C)C2)c1 (configuration not stated)		inconclusive: 1.39%
COc1cccc(Sc2ccccc2/C=N/NC(N)=O)c1		inactive: -0.514%
